Values quoted from earlier work, collected in patent publication US6469027B1, “N-methyl-D-aspartate (NMDA) receptor blockers for the prevention of atherosclerosis” (The Board of Regents of the University of Nebraska, priority 1996, dated 2002).

System: rat liver cells
Conditions: cited from earlier work

N[C@@H](CCS)C(=O)O [homocysteine]
bound H[cys] associated with membrane particulate: 20%
protein bound H[cys] in the cytosol fraction: 30%
